{"source": "PubChem BioAssay AID686938 (Drosophila RNAi Screening Center, 2013)", "assay": "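Fly genes required for calcium entry once internal stores are emptied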 (primary screen)", "cell system": "Drosophila S2R+ cells", "knock-down reagent": "long dsRNA against Drosophila genes, about 0.25 µg dsRNA per well, roughly 10,000 cells", "duration": "5 days of knock-down before the calcium assay", "conditions": "thapsigargin (SERCA pump blocker) to empty calcium stores; entry signal taken 4 min after adding it", "measured": "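Per-well fluo-4 fluorescence in two replicates, unnormalised, measured in resting cells and 4 min after store depletion by the SERCA blocker thapsigargin; ratio of the two present in few wells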", "reading the numbers": "calcium entry signal: higher = stronger calcium signal after store depletion; resting calcium signal: higher = higher resting calcium signal", "units": "calcium entry signal in fluorescence units; resting calcium signal in fluorescence units", "call rule": "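Called when the plate z-score of the entry-to-rest ratio, mean of duplicates, falls below −3; wells with low overall dye signal (Fmax z below −2) or more than five off-targets excluded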", "calls": "active = strongly reduced calcium entry; inactive = no strong reduction", "note": "The deposit covers about 23,000 reagents; shown is an unselected part of those with a known target gene and a result. In the full data, 75 (0.33%) were called active. 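Raw plate signals without normalisation; calls rest on plate z-scores that were not deposited; ratio present for only 364 wells.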 Entries without a mark were called inactive. Not stated in the record: the dose of the treatment."}
{"gene": "CG32686", "DRSC id": "DRSC17645", "calcium entry signal, replicate 1": 3.74e7, "calcium entry signal, replicate 2": 4.02e7, "resting calcium signal, replicate 1": 1.64e7, "resting calcium signal, replicate 2": 1.86e7}
{"gene": "CNPYb (Canopy b)", "DRSC id": "DRSC09845", "calcium entry signal, replicate 1": 3.66e7, "calcium entry signal, replicate 2": 5.20e7, "resting calcium signal, replicate 1": 1.92e7, "resting calcium signal, replicate 2": 3.53e7}
{"gene": "fau", "DRSC id": "DRSC12816", "calcium entry signal, replicate 1": 2.87e7, "calcium entry signal, replicate 2": 4.20e7, "resting calcium signal, replicate 1": 1.67e7, "resting calcium signal, replicate 2": 2.34e7}
{"gene": "fau", "DRSC id": "DRSC12817", "calcium entry signal, replicate 1": 3.05e7, "calcium entry signal, replicate 2": 3.78e7, "resting calcium signal, replicate 1": 1.52e7, "resting calcium signal, replicate 2": 2.03e7}
{"gene": "fau", "DRSC id": "DRSC16943", "calcium entry signal, replicate 1": 4.20e7, "calcium entry signal, replicate 2": 5.54e7, "resting calcium signal, replicate 1": 1.95e7, "resting calcium signal, replicate 2": 2.45e7}
{"gene": "fau", "DRSC id": "DRSC16944", "calcium entry signal, replicate 1": 3.63e7, "calcium entry signal, replicate 2": 3.91e7, "resting calcium signal, replicate 1": 1.79e7, "resting calcium signal, replicate 2": 2.09e7}
{"gene": "fau", "DRSC id": "DRSC16945", "calcium entry signal, replicate 1": 4.14e7, "calcium entry signal, replicate 2": 4.25e7, "resting calcium signal, replicate 1": 2.11e7, "resting calcium signal, replicate 2": 1.94e7}
{"gene": "fau", "DRSC id": "DRSC22360", "calcium entry signal, replicate 1": 3.67e7, "calcium entry signal, replicate 2": 5.07e7, "resting calcium signal, replicate 1": 1.80e7, "resting calcium signal, replicate 2": 2.83e7}
{"gene": "CG31909", "DRSC id": "DRSC22180", "calcium entry signal, replicate 1": 3.19e7, "calcium entry signal, replicate 2": 5.17e7, "resting calcium signal, replicate 1": 1.54e7, "resting calcium signal, replicate 2": 2.39e7}
{"gene": "MagR (Magnetic receptor)", "DRSC id": "DRSC20092", "calcium entry signal, replicate 1": 3.40e7, "calcium entry signal, replicate 2": 3.43e7, "resting calcium signal, replicate 1": 1.68e7, "resting calcium signal, replicate 2": 1.44e7}
{"gene": "GV1", "DRSC id": "DRSC08228", "calcium entry signal, replicate 1": 3.91e7, "calcium entry signal, replicate 2": 3.91e7, "resting calcium signal, replicate 1": 2.09e7, "resting calcium signal, replicate 2": 1.98e7}
{"gene": "Vps29 (Vacuolar protein sorting 29)", "DRSC id": "DRSC00666", "calcium entry signal, replicate 1": 3.90e7, "resting calcium signal, replicate 1": 2.26e7}

A portion of the results above, for reference:
{"gene": "fau", "DRSC id": "DRSC16944", "calcium entry signal, replicate 1": 3.63e7, "calcium entry signal, replicate 2": 3.91e7, "resting calcium signal, replicate 1": 1.79e7, "resting calcium signal, replicate 2": 2.09e7}
{"gene": "fau", "DRSC id": "DRSC16945", "calcium entry signal, replicate 1": 4.14e7, "calcium entry signal, replicate 2": 4.25e7, "resting calcium signal, replicate 1": 2.11e7, "resting calcium signal, replicate 2": 1.94e7}
